According to patent US6663869B1 (Gryphon Therapeutics, Inc., priority 1993, dated 2003):

What was measured:
[1] = solid-phase peptide synthesis; conditions: whole synthesis, scale of the general procedure 0.5 mmol per synthesis
[2] = general procedure: Fmoc solid-phase peptide synthesis; Fmoc-Arg(Pmc)-Sasrin; conditions: whole synthesis, scale approximately 20 umol
[3] = general procedure: Fmoc solid-phase peptide synthesis; Sasrin; conditions: whole synthesis, scale 0.17 mmol

H-Ser-Gly3-[Lys(H-Ser)]5-Gly-OH
difficulty met [1]: the standard ninhydrin test showed that acylation was incomplete

NH2OCH2CO-ELGGGPGAGSLQPLALEGSLQKR-OH
isolated mass [2]: 8 mg

Ser-TCTP
isolated mass [3]: 90 mg
